Measured values taken from PubChem BioAssay AID743255 (National Center for Advancing Translational Sciences (NCATS), 2014).
In all, about 390,000 compounds went through this assay and about 910 (0.23%) were called active. This list was built around the results that the source calls inconclusive (neither active nor inactive); the mix of calls is not that of the screen. Calls come from the whole dose curve; as a rule, active = well fitted inhibition curve with a large enough effect; inconclusive = small, poorly fitted or top-dose-only effect; inactive = no such curve, though single readings can be large or run the other way. Where the call is inconclusive, the potency comes from a doubtful curve fit.

Sequences of proteins named here, by UniProt entry; tags and fusion partners are left off. A change or cut given only in a name is not applied to a line headed by its entry.
UniProt O94782: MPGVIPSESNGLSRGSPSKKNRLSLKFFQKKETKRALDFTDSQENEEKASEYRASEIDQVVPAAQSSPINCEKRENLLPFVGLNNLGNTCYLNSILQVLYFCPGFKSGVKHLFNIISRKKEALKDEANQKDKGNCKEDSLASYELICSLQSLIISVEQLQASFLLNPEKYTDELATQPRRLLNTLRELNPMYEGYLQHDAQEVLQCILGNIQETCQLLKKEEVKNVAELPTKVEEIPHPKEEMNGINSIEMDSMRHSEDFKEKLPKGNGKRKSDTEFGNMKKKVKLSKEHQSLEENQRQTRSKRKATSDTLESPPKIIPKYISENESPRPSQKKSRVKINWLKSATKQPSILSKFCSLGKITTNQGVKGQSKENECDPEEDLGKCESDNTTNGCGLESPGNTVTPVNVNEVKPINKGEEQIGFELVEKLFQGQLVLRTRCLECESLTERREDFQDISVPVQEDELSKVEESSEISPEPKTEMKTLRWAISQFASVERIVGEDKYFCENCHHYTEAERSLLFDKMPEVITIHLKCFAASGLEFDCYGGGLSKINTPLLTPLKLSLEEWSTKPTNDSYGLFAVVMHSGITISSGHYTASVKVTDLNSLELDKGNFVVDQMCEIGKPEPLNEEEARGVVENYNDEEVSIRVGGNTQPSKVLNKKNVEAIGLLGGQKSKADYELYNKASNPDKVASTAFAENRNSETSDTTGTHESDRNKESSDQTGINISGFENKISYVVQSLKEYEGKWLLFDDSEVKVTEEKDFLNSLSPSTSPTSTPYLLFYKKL

Molecular target: Ubiquitin carboxyl-terminal hydrolase 1 (Homo sapiens) (UniProt O94782)
Experiment: Inhibitors of USP1/UAF1: Primary Screen; note: nearly all actives have a fitted effect of over 60% in size
Details: recombinant USP1/UAF1, Ub-Rhodamine cleavage fluorescence; activity change, negative = inhibition: at 57.1 µM (top of the series)
Method in brief: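 1 nM enzyme complex + cpd, 15 min RT; start with Ub-Rho 150nM final; kinetic fluorescence ex 480/em 540, 6 reads q60 s. Buffer 50mM HEPES pH 7.8, 0.5mM EDTA, 0.1 mg/ml BSA, 1mM TCEP, 0.01% Tween-20.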
% is set by controls: 0 for no effect and ±100 for the full control effect; potency is the fitted concentration of half-maximal effect.

Potency, inconclusive:
CC(Nc1cccc2ccccc12)C(=O)N/N=C/c1ccccn1 (stereo not drawn) 0.251 µM [inhibitor, full curve, poor fit]
COc1ccc(/C=c2/sc3n(c2=O)C(c2ccccc2OC)C2=C(N=3)c3ccccc3CC2)cc1O (stereo not drawn) 50.1 µM [inhibitor, partial curve, poor fit]
CCOC(=O)C1CCN(C(c2ccc(OCC)cc2)c2c(O)cc(C)n(CCOC)c2=O)CC1 (stereo not drawn) 79.4 µM [inhibitor, partial curve]
Nc1ccc2ncccc2c1N 39.8 µM [inhibitor, partial curve]
Cc1cc(C)cc(N2CC(c3nnc(NC(=O)c4ccco4)s3)CC2=O)c1 (stereo not drawn) 50.1 µM [inhibitor, single point]
CC(C)(C)NS(=O)(=O)c1ccc(CCC(=O)Nc2ccc3c(c2)OCO3)cc1 31.6 µM [inhibitor, single point]
CCSc1ncc(Cl)c(C(=O)N(Cc2ccccc2)c2ccc(OC)cc2)n1 0.251 µM [inhibitor, full curve, poor fit]
CCOC(=O)c1nc(Nc2ccc(N3CCC(C)CC3)cc2)c2ccccc2n1 39.8 µM [inhibitor, partial curve]
Cc1nn(Cc2noc(C(=O)NCC3CCCO3)n2)c(C)c1Br (stereo not drawn) 28.2 µM [inhibitor, partial curve]
O=C(Cc1ccccc1)NC(CSSCC(NC(=O)Cc1ccccc1)C(=O)O)C(=O)O (stereo not drawn) 44.7 µM [inhibitor, single point]
CCC(c1nnnn1CCc1ccccc1)N(Cc1ccco1)Cc1cc2cccc(C)c2[nH]c1=O (stereo not drawn) 0.891 µM [inhibitor, full curve, poor fit]
NS(=O)(=O)c1cc(C(=O)OCCNC(=O)c2ccccc2)c(Cl)cc1Cl 0.631 µM [inhibitor, full curve, poor fit]
CCOC(=O)C(CC)n1nc(C)c2c(C)n(-c3ccc(C)cc3)nc2c1=O (stereo not drawn) 1.41 µM [inhibitor, full curve, poor fit]
Nc1nc(-c2ccc(Oc3ccccc3)cc2)c(CC(=O)O)s1 10 µM [inhibitor, full curve, poor fit]
CN1CCN(c2ccccc2NC(=O)COc2ccc(C3CCCCC3)cc2)CC1 44.7 µM [inhibitor, partial curve, poor fit]
COc1cc(C(CC(=O)Nc2cccc(C(C)=O)c2)N2Cc3ccccc3C2=O)cc(OC)c1OC (stereo not drawn) 2.82 µM [inhibitor, partial curve]
CCOC(=O)c1sc(NC(=O)Cn2nnc3sc4c(c3c2=O)CCCC4)nc1C 44.7 µM [inhibitor, partial curve, poor fit]
C[C@H](CO)N1C[C@H](C)[C@@H](CN(C)Cc2ccncc2)Oc2c(NS(=O)(=O)c3cccs3)cccc2C1=O 6.31 µM [inhibitor, partial curve]
C=CCC1(CC=C)CCCN1C(=O)c1cc(COc2cccc(C(F)(F)F)c2)on1 39.8 µM [inhibitor, partial curve]
C=CC[C@@H](CC(=O)N(CCO)Cc1ccccc1)C(=O)N[C@H](COC(=O)[C@H](CC=C)CC(=O)OC(C)(C)C)Cc1c[nH]c2ccccc12 70.8 µM [inhibitor, partial curve, poor fit]
CCOc1ccc(NC(=O)c2ccc(-c3cccc(Cl)c3C)o2)cc1 4.47 µM [inhibitor, partial curve]
COc1ccc(NC(=O)COC(=O)CN2C(=O)C3CCCCC3C2=O)cc1 (stereo not drawn) 0.251 µM [inhibitor, full curve, poor fit]
Cc1sc2ncn(CC(=O)N3CCN(c4ccccc4)CC3)c(=O)c2c1S(=O)(=O)N1CCOCC1 31.6 µM [inhibitor, partial curve]
CCOC(=O)c1oc2ccc(CNC3CCCCC3)c(Cl)c2c1C 28.2 µM [inhibitor, single point]
O=C(NCC1CCCO1)C1CC(=O)N(c2cccc(Cl)c2)C1 (stereo not drawn) 4.47 µM [inhibitor, partial curve]
Cc1cccc(C2C=C(c3ccc(F)cc3)Nc3nc4ccccc4n32)c1 (stereo not drawn) 15.8 µM [inhibitor, partial curve]
O=c1c2cc3c(nc2ncn1Cc1ccccc1F)CCCC3 4.47 µM [inhibitor, partial curve]
CN1C(N)=NC(=O)/C1=C/c1ccccc1F 5.01 µM [inhibitor, partial curve]
COc1ccccc1CNC(=O)c1oc2c(c1C)-c1nn(Cc3ccc(Cl)cc3)cc1CC2 3.98 µM [inhibitor, single point]
O=C(O)c1ccccc1NC(=O)c1ccccc1Nc1ccccc1 39.8 µM [inhibitor, partial curve]
COC(=O)[C@@]1(Cc2ccc(F)cc2)[C@H]2c3cc(C(=O)N4CCCC4)n(CCc4ccccn4)c3C[C@H]2CN1C(=O)c1ccccc1 44.7 µM [inhibitor, partial curve, poor fit]
COc1ccc(NC(=O)CN2C(=O)COc3ccc(S(=O)(=O)N4CCOCC4)cc32)cc1Cl 0.355 µM [inhibitor, full curve, poor fit]
COc1ccc(N2CCN(C(=O)CCS(=O)(=O)c3cc(Br)cc4c3N(C(=O)C3CC3)CC4)CC2)cc1 44.7 µM [inhibitor, partial curve, poor fit]
CN(C)CCN(C(=O)c1ccc2c(c1)CCCC2)c1nc2c(F)cccc2s1 28.2 µM [inhibitor, partial curve]
O=C1c2ccccc2C(=O)c2c(/C=C/N3CCCCC3)ccnc21 31.6 µM [inhibitor, partial curve]
O=C(OCC(=O)N1CCN(C(=O)c2ccco2)CC1)c1cc(-c2ccco2)nc2ccccc12 44.7 µM [inhibitor, single point]
CC1=C(C(=O)NCc2ccc(Cl)cc2)C2(CCCCCC2)OC1=O 44.7 µM [inhibitor, partial curve, poor fit]
CCOC(=O)[C@@H]1[C@H]2COc3ccccc3[C@H]2N2C(=O)N(c3ccccc3)C(=O)[C@]12C 56.2 µM [inhibitor, partial curve, poor fit]
COc1ccc(N=C2NN=C(c3ccc4c(c3)OCCO4)CS2)cc1 11.2 µM [inhibitor, partial curve]
CC[C@@H]1C(c2ccc(F)cc2)=NN(c2ccccc2)[C@H]1C(=O)N1CCOC1=O 50.1 µM [inhibitor, partial curve, poor fit]
COc1cc2c(cc1OC)NC(=O)C2 0.0891 µM [inhibitor, full curve, poor fit]
Cc1nc2nc(SCC(=O)NCc3ccccc3)nn2c(C)c1Cc1ccccc1 0.631 µM [inhibitor, full curve, poor fit]
Cc1ccc(-c2nn3c(-c4ccc(C)cc4)nnc3c3ccccc23)cc1 0.631 µM [inhibitor, full curve, poor fit]
CN(C)c1ccc(/C=C(\NC(=O)c2ccccc2)C(=O)NCc2cccnc2)cc1 25.1 µM [inhibitor, partial curve]

Potency, inactive:
COc1ccc2c3c(cccc13)OCC2=O
CCOC(=O)c1cccc(NS(=O)(=O)c2ccc3[nH]c4c(c3c2)CCCC4)c1
CCOC(=O)c1ccc2nc(C)cc(Nc3ccc(OC(C)C)cc3)c2c1
CCOC(=O)c1ccc(N2C(=O)c3n[nH]c(-c4cccs4)c3C2c2ccc(CC)cc2)cc1 (stereo not drawn)
Clc1ccc(-n2nnnc2SCc2cn3ccccc3n2)cc1
CC(=O)Nc1nonc1-c1nnc(SCC(=O)Nc2cc(Cl)ccc2C)n1C
Cc1cc(N2CCCCC2)nc(NCc2ccccc2)n1
CC(=O)C1=C(c2ccc(Cl)c(Cl)c2)N(C(C)=O)n2c(nnc2-c2ccccc2)S1
OC[C@H](O)[C@H](O)[C@@H](O)[C@@H](O)[C@@H]1SC(c2ccccc2)=NN1c1ccccc1
Cc1ccc(N2CC(c3nnc(NC(=O)c4ccco4)s3)CC2=O)cc1C (stereo not drawn)
Cc1ccc(/C=C2/SC(=S)N(CCCC(=O)Nc3cc([N+](=O)[O-])ccc3O)C2=O)cc1
Cc1ccc(C)c(CN2C(=O)c3ccccc3S(=O)c3ccc(C(=O)NCCc4ccc(Cl)cc4)cc32)c1 (stereo not drawn)
O=C1OC2(CCCCC2)OC(=O)C1=CNc1ccc2c(c1)OCO2
O=C(NCc1ccncc1)c1ccc(N2CCCC2)c([N+](=O)[O-])c1
CCn1c(=O)c2ccccc2n2c(SCC(N)=O)nnc12
COc1cc(NC(=O)c2ccc3c(c2)OCO3)ccc1NC(=O)C(C)C
CCOC(=O)CCP(=O)(O)C(O)c1ccc(OC)cc1 (stereo not drawn)
Cc1cc(C(=O)O)cc(Br)c1N

Sorted by heavy-atom count (ascending): 4 of the compounds above.
Potency, inactive:
Cc1cc(C(=O)O)cc(Br)c1N
CCOC(=O)CCP(=O)(O)C(O)c1ccc(OC)cc1 (stereo not drawn)
COc1cc(NC(=O)c2ccc3c(c2)OCO3)ccc1NC(=O)C(C)C
CCOC(=O)c1ccc2nc(C)cc(Nc3ccc(OC(C)C)cc3)c2c1

Following part:

Activity change, negative = inhibition, inconclusive:
CCc1ccc(Nc2ncc3c(n2)CC(C)(C)CC3=O)cc1 5.41% [inhibitor]
